Measured values as given in patent US20190027771A1, “ACID GAS REGENERABLE BATTERY” (Commonwealth Scientific and Industrial Research Organisation, priority 2015, published 2019).
Some entries repeat one wording, which the source may state once for all of them.

How the values were obtained:
[1] = addition of Me(II) ions in ammonia based electrolytes; suppression order Ni(II)>Cu(II)>Zn(II); cited from earlier work
[2] = Power generation performance of electrochemical cell with different amines, Cu/Cu^2+ as the redox couple; details: 2M amines, 0.1 M Cu(II); for CO2 loading in cathode: CO2-loaded catholyte, room temperature (20-22° C.); for CO2 loading in cathode / Open circuit potential: 1 M NH4NO3 or 1 M KNO3; for Measured maximum power density / Open circuit potential: Cu/Cu^2+, 20-22° C.; for Measured maximum power density: calculated based on the effective membrane area; for Open circuit potential: catholyte CO2-loaded, anolyte non CO2-loaded

Compound	Ammonia loss in absorption and regeneration processes [1]	CO2 loading in cathode [2]	Measured maximum power density [2]	Open circuit potential [2]
[Cu+2] [Cu^2+]	significantly reduced ammonia loss	–	–	–
[Zn+2] [Zn^2+]	significantly reduced ammonia loss	–	–	–
[Ni+2] [Ni^2+]	significantly reduced ammonia loss	–	–	–
NCCO [Ethanolamine]	–	0.49	2.17 W/m^2	0.214 v
Pyrrolidine	–	0.61	1.05 W/m^2	0.2 v
NCCOCCO [2-(2-Aminoethoxy)-ethanol, 2-(2-Aminoethoxy)ethanol]	–	0.52	3.34 W/m^2	0.22 v
C1CNCCN1 [Piperazine]	–	0.84	2.88 W/m^2	0.21 v
CCCN [Propylamine]	–	0.61	3.52 W/m^2	0.22 v
CC1CCNCC1 [4-methylpiperidine]	–	0.56	0.91 W/m^2	0.13 v
1,3 Diaminopropane	–	1.0	3.23 W/m^2	0.25 v
N=C(N)NCCC[C@H](N)C(=O)O [L-Arginine]	–	1.28	0.15 W/m^2	0.09 v
NCC(=O)O [Glycine]	–	0.50	1.21 W/m^2	0.144 v
NCc1cccc(CN)c1 [m-Xylylenediamine]	–	0.81	4.20 W/m^2	0.28 v
O=C(O)[C@@H]1CCCN1 [L-Proline]	–	0.59	0.91 W/m^2	0.182 v
N[C@@H](CO)C(=O)O [L-Serine]	–	0.48	0.49 W/m^2	0.092 v
NCCCCCO [5-Amino-1-pentanol]	–	0.56	2.82 W/m^2	0.218 v

Compound	Ammonia loss in absorption and regeneration processes [1]	CO2 loading in cathode [2]	Measured maximum power density [2]	Open circuit potential [2]
N[C@@H](CCC(=O)O)C(=O)O [Glutamic acid]	–	0.28	0.27 W/m^2	0.11 v
NCCCCCCN [hexamethylenediamine]	–	1.1	2.88 W/m^2	0.24 v
CC(N)(CO)CO [2-amino-2-methyl-1 3-propanediol, 2-amino-2-methyl-1 3-propanediol]	–	0.63	1.25 W/m^2	0.14 v
CCCCN [Butylamine]	–	0.5	2.37 W/m^2	0.19 v
CN(C)CCCN [3-(dimethylamino)-1-propylamine, 3-(dimethylamino)-1-propylamine]	–	1.03	2.6 W/m^2	0.21 v
3-Amino-1-propanol	–	0.64	2.73 W/m^2	0.268 v
C[C@H](N)C(=O)O [L-Alanine]	–	0.51	1.48 W/m^2	0.20 v
OCCNCCO [Diethanolamine]	–	0.55	1.56 W/m^2	0.14 v
C[C@@H](O)[C@H](N)C(=O)O [L-Threonine]	–	0.45	0.79 W/m^2	0.096 v
CC(O)CNCC(C)O (stereo not drawn) [bis(2-hydroxypropyl)-amine, bis(2-hydroxypropyl)amine]	–	0.47	0.76 W/m^2	0.12 v
NCCCn1ccnc1 [1-(3-aminopropyl)-imidazole, 1-(3-aminopropyl)imidazole]	–	0.75	0.81 W/m^2	0.12 v
CCCCCN [Amylamine]	–	0.5	4.83 W/m^2	0.27 v
CNCC(=O)O [Sarcosine]	–	0.48	0.52 W/m^2	0.145 v
NCCN [Ethylenediamine]	–	0.96	2.93 W/m^2	0.24 v
N [Ammonia]	–	0.5	0.96 W/m^2	0.09 v
